PubChem BioAssay AID504791 – Drosophila RNAi Screening Center, 2011

Assay: 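Genes whose knock-down strengthens or weakens small-RNA reporter silencing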 (primary screen)
System: Drosophila S2-derived reporter cells
Reagents: long dsRNA against Drosophila genes, about 150-250 ng dsRNA per well (siRNA assay); about 80-120 ng (miRNA assay)
Time to read-out: about 5 days (siRNA assay); about 4 days (miRNA assay)
Challenge: copper sulfate induction of reporters: 25 µM (siRNA assay); 200 mM stated (miRNA assay), 1-2 days before reading
Measured: 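Dual luciferase assay: Renilla to firefly signal ratio in each well, scaled to the mean ratio of its plate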
Scale: siRNA reporter hit score: higher = 3 marks a strong hit with raised ratio; -3 a strong hit with lowered ratio
Rule for the call: 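a well was a first-pass pick when its plate-scaled ratio rose above 1.5 (siRNA assay) or 1.6 (miRNA assay), or dropped below 0.6; a gene counted only if two separate dsRNAs agreed on retest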
The screen tested about 23,000 reagents; shown is an unselected part of those with a known target gene and a result. Over the whole deposit, 199 (0.86%) got an active call. 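Plate-scaled ratios behind the calls are not deposited; printed light signals are raw; many rows marked increased or decreased are still called inactive.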 The numbers tell different reagents against one gene apart. Names joined by + are all predicted targets of the reagent.

predicted target	reagent	siRNA reporter hit score	stable siRNA reporter change	miRNA reporter change	stable assay Renilla, run 1 (luminescence)	stable assay firefly, run 1 (luminescence)	call
CG2260	1				7062	5.51e5	inactive
CG11380	1				4179	1.99e5	inactive
CG11380	2				4243	2.58e5	inactive
CG16704	1				6884	3.31e5	inactive
CG13539	1				6111	4.34e5	inactive
CG5662	1				4571	3.94e5	inactive
Golgin97 (Golgin 97)	1				8805	5.89e5	inactive
RpL9 (Ribosomal protein L9)	1				9067	3.41e5	inactive
CG14431	1				4975	3.02e5	inactive
COX7A (Cytochrome c oxidase subunit 7A)	1				5918	5.54e5	inactive
CG8607	1				6830	3.93e5	inactive
Hayan	1				2755	2.84e5	inactive
Hayan	2				9215	5.86e5	inactive
vnc + CG42455	1				6696	3.28e5	inactive
BtbVII (BTB-protein-VII)	1				3623	2.70e5	inactive
BtbVII (BTB-protein-VII)	2				7983	4.82e5	inactive
CG5773	1				9171	3.70e5	inactive
RabX5	1				6755	4.37e5	inactive
Fkbp12 (FK506-binding protein 12kD)	1				6226	3.72e5	inactive
CR11235 (pseudo)	1				5354	3.56e5	inactive
Hr83 (Hormone receptor 83)	1				6507	3.59e5	inactive
CG34342	1				6610	4.24e5	inactive
CG34342	2				4743	4.62e5	inactive
TM9SF4 (Transmembrane 9 superfamily protein member 4)	1				7364	1.11e6	inactive
TM9SF4 (Transmembrane 9 superfamily protein member 4)	2				7583	3.92e5	inactive
Spp (Signal peptide peptidase)	1				12887	5.61e5	inactive
Rev1 (DNA polymerase Rev1)	1				12404	4.29e5	inactive
CecA1 (Cecropin A1)	1				6955	4.70e5	inactive
CG16787	1				4899	3.02e5	inactive
Alh (Alhambra)	1				4904	2.50e5	inactive
Alh (Alhambra)	2				5830	3.32e5	inactive
Alh (Alhambra)	3				7986	4.65e5	inactive
Cdk12 (Cyclin-dependent kinase 12)	1	-3			5743	2.83e5	inactive
Cdk12 (Cyclin-dependent kinase 12)	2		reporter ratio raised past the hit cutoff		4379	99571	active
Cdk12 (Cyclin-dependent kinase 12)	3			reporter ratio raised past the hit cutoff			active
JTBR	1				4907	3.28e5	inactive
CG14183	1				8164	3.63e5	inactive
CG2200	1	3			6386	5.24e5	inactive
nkd (naked cuticle)	1				7350	4.79e5	inactive
asRNA:CR42547 + CG15674	1				6839	3.72e5	inactive
CG7742	1				11251	4.96e5	inactive
CG9628	1				8415	3.19e5	inactive
CG5043	1				7866	4.02e5	inactive
side-VI (sidestep VI)	1				6911	4.16e5	inactive
side-VI (sidestep VI)	2				5367	4.48e5	inactive
side-VI (sidestep VI)	3				7332	3.93e5	inactive
side-VI (sidestep VI)	4				5963	3.18e5	inactive
side-VI (sidestep VI)	5				4599	3.29e5	inactive
CG31121	1				7817	3.67e5	inactive
CG31121	2				6266	3.55e5	inactive
CG5770	1				9765	3.64e5	inactive
Or82a (Odorant receptor 82a)	1				7186	7.09e5	inactive
Orc2 (Origin recognition complex subunit 2)	1				7970	4.31e5	inactive
CG30187	1				3831	3.54e5	inactive
CR32745 (pseudo)	1				6331	4.93e5	inactive
CG34006 (retired record)	1				7695	6.14e5	inactive
RfC3 (Replication factor C subunit 3)	1				8356	3.22e5	inactive
CG14866	1				7112	3.54e5	inactive
sunn	1				9402	4.55e5	inactive
CG14377	1				8201	4.54e5	inactive
CG15414	1				9158	5.73e5	inactive
CG15414	2				9107	6.84e5	inactive
smp-30 (Senescence marker protein-30)	1				6516	3.52e5	inactive
ND-49 (NADH dehydrogenase (ubiquinone) 49 kDa subunit)	1				5903	3.22e5	inactive
CG7646	1				6359	3.64e5	inactive
Srp14 (Signal recognition particle 14)	1				6759	3.53e5	inactive
CG8500	1				6762	3.64e5	inactive
Or59a (Odorant receptor 59a)	1				6714	3.83e5	inactive
GstD2 (Glutathione S transferase D2)	1				6756	4.09e5	inactive
FoxL1 (Forkhead box L1)	1				5003	2.68e5	inactive
CG31769	1				5846	4.84e5	inactive
CG13751	1				6726	4.24e5	inactive
HP5 (Heterochromatin protein 5)	1				7578	5.05e5	inactive
CG11596	1				8546	4.78e5	inactive
corn (cornetto)	1				8567	4.77e5	inactive
corn (cornetto)	2				8624	5.53e5	inactive
CG13685	1				5530	4.05e5	inactive
CG5004	1				3823	3.82e5	inactive
CG5004	2				4515	4.61e5	inactive
CG5004	3				2816	2.03e5	inactive
2mit	1				7258	4.64e5	inactive
2mit	2				7039	4.54e5	inactive
Sxl + CG14425 (retired record)	1				6922	3.34e5	inactive
Sxl + CG14425 (retired record)	2				6146	3.13e5	inactive
Sxl + CG14425 (retired record)	3				8932	4.97e5	inactive

Part of the list above in another layout.
CG14866 → stable assay Renilla, run 1 (luminescence) = 7112; stable assay firefly, run 1 (luminescence) = 3.54e5; call = inactive
sunn → stable assay Renilla, run 1 (luminescence) = 9402; stable assay firefly, run 1 (luminescence) = 4.55e5; call = inactive
CG14377 → stable assay Renilla, run 1 (luminescence) = 8201; stable assay firefly, run 1 (luminescence) = 4.54e5; call = inactive
CG15414 #1 → stable assay Renilla, run 1 (luminescence) = 9158; stable assay firefly, run 1 (luminescence) = 5.73e5; call = inactive
CG15414 #2 → stable assay Renilla, run 1 (luminescence) = 9107; stable assay firefly, run 1 (luminescence) = 6.84e5; call = inactive
smp-30 (Senescence marker protein-30) → stable assay Renilla, run 1 (luminescence) = 6516; stable assay firefly, run 1 (luminescence) = 3.52e5; call = inactive
ND-49 (NADH dehydrogenase (ubiquinone) 49 kDa subunit) → stable assay Renilla, run 1 (luminescence) = 5903; stable assay firefly, run 1 (luminescence) = 3.22e5; call = inactive
CG7646 → stable assay Renilla, run 1 (luminescence) = 6359; stable assay firefly, run 1 (luminescence) = 3.64e5; call = inactive
Srp14 (Signal recognition particle 14) → stable assay Renilla, run 1 (luminescence) = 6759; stable assay firefly, run 1 (luminescence) = 3.53e5; call = inactive
CG8500 → stable assay Renilla, run 1 (luminescence) = 6762; stable assay firefly, run 1 (luminescence) = 3.64e5; call = inactive
Or59a (Odorant receptor 59a) → stable assay Renilla, run 1 (luminescence) = 6714; stable assay firefly, run 1 (luminescence) = 3.83e5; call = inactive
GstD2 (Glutathione S transferase D2) → stable assay Renilla, run 1 (luminescence) = 6756; stable assay firefly, run 1 (luminescence) = 4.09e5; call = inactive
FoxL1 (Forkhead box L1) → stable assay Renilla, run 1 (luminescence) = 5003; stable assay firefly, run 1 (luminescence) = 2.68e5; call = inactive
